Reference: article PMC9184547, “Distinct dissociation rates of murine and human norovirus P-domain dimers suggest a role of dimer stability in virus-host interactions” (Communications Biology, 2022)
No constants are given. Whether binding was seen depends on the method and setting. Some results given as binding are weak or reduced against the parent protein; the word gives no strength.

Amino acid sequences for entries named in this document (tags omitted). Residues count along the entry.
UniProt Q80J94, residues 225-541: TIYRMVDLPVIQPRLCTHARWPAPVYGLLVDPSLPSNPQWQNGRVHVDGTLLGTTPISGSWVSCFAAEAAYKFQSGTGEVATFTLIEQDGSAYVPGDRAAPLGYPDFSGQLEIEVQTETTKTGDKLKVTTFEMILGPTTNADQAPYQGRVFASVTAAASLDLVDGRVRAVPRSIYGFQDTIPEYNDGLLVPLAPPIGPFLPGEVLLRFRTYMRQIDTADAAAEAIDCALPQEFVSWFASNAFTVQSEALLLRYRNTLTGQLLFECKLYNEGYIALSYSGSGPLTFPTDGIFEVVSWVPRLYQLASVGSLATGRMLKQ

Target: MNV-1 (CW1) P-domain (murine norovirus MNV-1 (CW1)) (UniProt Q80J94)
Experiment: NMR titration; methyl TROSY and 1H,15N TROSY HSQC spectra of P-domain (50 or 100 uM) titrated with GCDCA up to 550 or 300 uM; 298 K, pH* 5.3; both purified

For “MNV-1 (CW1) P-domain (from UniProt Q80J94 225-541) (domain or fragment)”, the binding was “binds”.
